Assay results: US20080280834A1, “Compounds and methods for inhibiting apoptosis” (University of Pittsburgh of the Commonwealth System of …, priority 2005, published 2008)
Like-named read-outs stand apart in the source and are kept apart here. Part of at least one peptide drawing is inferred or uncertain, most often the ends. Residues, ends and D or L forms follow the SMILES beside them.

By UniProt entry, the sequences of proteins in these tests, tags left out. Chains listed by the source or under a name are the forms on record and can include a tag or linker.
UniProt P25445, with tags, fused parts or gaps limits assumed: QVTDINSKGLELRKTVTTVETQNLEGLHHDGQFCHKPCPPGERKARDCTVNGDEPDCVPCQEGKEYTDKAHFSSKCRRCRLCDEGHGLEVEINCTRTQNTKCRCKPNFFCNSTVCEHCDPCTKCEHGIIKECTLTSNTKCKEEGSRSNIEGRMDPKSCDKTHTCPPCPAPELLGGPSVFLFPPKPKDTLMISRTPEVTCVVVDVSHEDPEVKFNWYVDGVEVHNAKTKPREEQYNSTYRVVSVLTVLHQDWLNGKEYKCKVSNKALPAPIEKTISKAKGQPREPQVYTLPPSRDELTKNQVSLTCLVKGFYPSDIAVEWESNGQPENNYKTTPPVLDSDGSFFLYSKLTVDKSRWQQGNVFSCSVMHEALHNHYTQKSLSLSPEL

What was measured:
Jurkat cells = format: cell-based, human
Text: (§1) Cell Lines, Chemicals, Antibodies & Proteins. Recombinant Human Fas/TNFRSF6/Fc Chimera (cat no. 326-FS-050), Human Fas Ligand/TNFSF6 (cat. No. 126-FL), Anti-human Fas TNFRSF6 Polyclonal Antibody (cat. no. AF326) and Anti-6×Histidine Cross-Linking Ab (cat no. MAB050) were purchased from R&D Systems. Anti-human, IgM-HRP (cat. no. AP320P) was purchased from Chemicon International. Phosphate buffered saline (cat. no. P3563), sodium azide (cat. no. 71289) and 3,3′,5,5′-Tetramethylbenzidine (TMB) Liquid Substrate System for ELISA (cat. no. T0440) were purchased from Sigma-Aldrich. Cliniplate 96-well microplates w/enhanced binding (cat. no. 28298-604) were purchased from VWR. Costar, 96-well, cell culture assay plates (cat. no. 3632) were ordered from Corning Incorporated. Jurkat cells (ATCC no. CRL-1990) and L929 (ATCC no. CRL-2148) were purchased from ATCC and were propagated in RPMI 1640 medium with 2 mM L-glutamine, adjusted to contain 1.5 g/L sodium bicarbonate, 4.5 g/L glucose, 10 mM HEPES, and 1 mM sodium pyruvate, 90%; 10% fetal bovine serum. CellTiter Blue Cell Viability Assay (cat. no. TB317) was purchased from Promega.
Apoptosis Assay. […] Fluorescence readings (560/590 nm) were taken after 4 hours under above cited incubation conditions on a Perkin-Elmer, Victor3 Model automated plate reader. Data was analyzed using standard regression fits in Excel. […]

FasR = target: T1, FasR (Homo sapiens, UniProt P25445); experiment: ELISA binding of peptides to FasR (association constant)
T1 construct: Fc (IgG Fc fusion partner); purchased R&D Systems 326-FS-050
Text: as §1
ELISA. Peptides were dissolved in a coating buffer solution (0.05M Sodium Carbonate, 0.02% Sodium Azide, pH=9.6) at the appropriate concentrations to a final concentration of 10 μM. Dilutions were made accordingly to reach desired experimental concentrations. 100 μl aliquots of the peptide solution was added to each well and incubated for 2 hours. All incubations were carried out with shaking at T=37° C. Wells were washed by pipetting solution out of each well, adding 200 μL of washing solution (PBS-Tween; 0.5%), shaking for 15 minutes and emptying each well. Three wash cycles were carried out prior to addition of 200 μL of blocking solution (1% BSA in PBS buffer) to each well followed by incubation for 2 hours. Wells were then washed (as per above procedure) three times. Protein solutions of the appropriate concentrations (Vsolution 50 μL) were then added and incubated for 2 hours. After washing three times (as per above protocol) Fas specific antibody solution (˜1:20,000) was added to each well in 100 μL aliquots and incubated for 1 hour. After washing three times (as per above protocol) IgM-HRP solution (˜1:20,000) was added to each well in 100 μL aliquots and incubated (with shaking) for 1 hour at T=37° C. Wells were washed three times prior to the addition of ready-to-use TMD, followed by incubation for 30 minutes. 2M H2SO4 (3 drops) was added to stop colorimetric reaction and the absorption was taken at 450 nm on a Perkin-Elmer, Victor3 Model automated plate reader. Data was analyzed using standard regression fits in Excel.
Effect of Amino Acid Substitution on Binding Affinities. The binding affinity of each tetrapeptide was determined by standard ELISA with a concentration range of 1 nM to 1 μM. In the first series of peptides, alterations were made only to the tyrosine residue while retaining the final three amino acids homologous in the parent sequence (LGA).

TNFR1 = target: T2, TNFR1 (Homo sapiens, UniProt P19438); experiment: Binding of peptides to TNFR / TNFR1 (Kd)
T2 sequence (P19438 30-455): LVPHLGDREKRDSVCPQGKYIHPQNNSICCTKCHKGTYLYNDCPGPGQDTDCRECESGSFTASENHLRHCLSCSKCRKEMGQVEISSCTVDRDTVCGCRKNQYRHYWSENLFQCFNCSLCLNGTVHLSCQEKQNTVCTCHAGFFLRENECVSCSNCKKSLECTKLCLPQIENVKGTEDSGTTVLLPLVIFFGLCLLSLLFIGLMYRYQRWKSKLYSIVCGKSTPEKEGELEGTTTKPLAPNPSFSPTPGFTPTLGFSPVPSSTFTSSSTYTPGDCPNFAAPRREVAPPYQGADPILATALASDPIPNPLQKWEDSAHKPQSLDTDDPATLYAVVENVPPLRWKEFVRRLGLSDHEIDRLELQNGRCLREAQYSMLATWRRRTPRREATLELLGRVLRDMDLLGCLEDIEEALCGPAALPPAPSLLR

[1] = Table 5, FasR, corresponding KD values
[2] = read-out: Kd TNFR, Table 6, preliminary results

Row | SMILES | Kd (FasR; [1]) [nM] | Kd (FasR; read-out: Kd FasR, Table 6) [nM] | Kd (TNFR1; [2]) [nM] | Ka (FasR; Table 5, FasR) [M⁻¹] | other results
1 | CC(C)C[C@H](NC(=O)[C@@H](N)Cc1ccc(O)cc1)C(=O)NCC(=O)N[C@@H](C)C(N)=O [YLGA] (H-YLGA-NH2) | 5 | 5 | 6 | – | EC50 (Jurkat cells; Table 8, read-out: Fas EC50): 11 nM; Ka(M − 1), Measured Association Constants (Ka) for YLGA and YLGX Substituted Peptides (FasR; ELISA, 1 nM to 1 μM, fourth residue varied): 2 × 10^8 M − 1; Ka(M^−1), Measured Association Constants (Ka) YLGA and YXGA Substituted Proteins (FasR; ELISA, 1 nM to 1 μM, second residue varied): 2e+08 M⁻¹; Ka(M^−1), Measured Association Constants (Ka) for YLGA and YLXA Substituted Peptides (FasR; ELISA, 1 nM to 1 μM, third residue varied): 2e+08 M⁻¹; Ka(M^−1), Measured Association Constants (Ka) for YLGA to XLGA Substituted Peptides (FasR; ELISA, concentration range 1 nM to 1 μM, first residue varied): 2e+08 M⁻¹; Kd (FasR; read-out: Fas Kd, Table 8): 4.5 nM; Kd (TNFR1; read-out: TNFR1 Kd, Table 8): 5.7 nM
2 | CC(C)C[C@H](NC(=O)[C@@H](N)Cc1ccc(O)cc1)C(=O)NCC(=O)NCC(N)=O [YLGG] (H-YLGG-NH2) | 28 | 28 | 4 | – | EC50 (Jurkat cells; Table 6, read-out: EC50 FasR): 52 nM
3 | C[C@H](NC(=O)CNC(=O)[C@H](C)NC(=O)[C@@H](N)Cc1ccc(O)cc1)C(N)=O [YAGA] (H-YAGA-NH2) | – | – | – | 3e+08 | –
4 | CC(C)C[C@H](NC(=O)[C@@H](N)CC(C)C)C(=O)NCC(=O)N[C@@H](C)C(N)=O [LLGA] (H-LLGA-NH2) | – | – | – | 1e+07 | –
